Laboratory results: PubChem BioAssay AID1259254 (NCATS, 2017)
The whole screen tested about 59,000 reagents; below is a random part of them. Over the whole deposit, about 1,550 (2.6%) were called active. 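G2 share is only a proxy for re-replication; each gene was hit by three separate siRNAs, and active genes were retested.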 The raw values are shown without normalisation. A number with no mark means an inactive call. Reagents against one gene are numbered here. Not given: the amount of reagent.

Screen: 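Finding genes that stop cells copying their DNA twice in one cycle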 (primary screen)
Cells: human HCT116 colorectal cancer cells
Knock-down reagent: single siRNA against human genes
Timing: 3 days
Measured: 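Imaged Hoechst DNA stain sorts each cell into a cycle phase by DNA amount; per plate, G2 fraction set to 0% for non-targeting and 100% for GMNN siRNA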
Direction: G2 robust z-score and G2 cells, % of GMNN control: higher = more G2 cells, more excess DNA replication; raw share of cells in G2: higher = larger share of cells with G2 DNA content
Active means: 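Active siRNAs have a G2 robust z of 5 or more median absolute deviations over the median, which in these data means about 38% or higher of GMNN control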

target gene | reagent no. | G2 robust z-score | G2 cells, % of GMNN control | raw share of cells in G2 (%)
KLF15 (GeneID 28999) | 1 | -0.892 | -3.31 | 1.62
KLF15 (GeneID 28999) | 2 | 0.13 | 3.88 | 7.66
KLF15 (GeneID 28999) | 3 | -0.13 | 2.05 | 4.28
CDK2AP2 (GeneID 10263) | 1 | -0.689 | -1.88 | 4.48
CDK2AP2 (GeneID 10263) | 2 | 0.707 | 7.94 | 7.26
CDK2AP2 (GeneID 10263) | 3 | 1.01 | 10.1 | 7.08
TBC1D13 (GeneID 54662) | 1 | -0.595 | -1.22 | 3.33
TBC1D13 (GeneID 54662) | 2 | -0.817 | -2.78 | 3.22
TBC1D13 (GeneID 54662) | 3 | 2.36 | 19.6 | 14.8
GNB4 (GeneID 59345) | 1 | -0.501 | -0.555 | 5.42
GNB4 (GeneID 59345) | 2 | -1.28 | -6.03 | 2.21
GNB4 (GeneID 59345) | 3 | -0.483 | -0.434 | 4.07
EDNRA (GeneID 1909) | 1 | 1.72 | 15.1 | 11.2
EDNRA (GeneID 1909) | 2 | -0.362 | 0.419 | 4.66
EDNRA (GeneID 1909) | 3 | -1.06 | -4.47 | 1.9
GOLGA6L10 (GeneID 647042) | 1 | -0.134 | 2.02 | 4.54
GOLGA6L10 (GeneID 647042) | 2 | 0.502 | 6.5 | 5.63
GOLGA6L10 (GeneID 647042) | 3 | 2.04 | 17.3 | 8.54
YAF2 (GeneID 10138) | 1 | 0.436 | 6.04 | 5.26
YAF2 (GeneID 10138) | 2 | 1.48 | 13.4 | 10.3
YAF2 (GeneID 10138) | 3 | 4.79 | 36.7 | 19.6
PPIL2 (GeneID 23759) | 1 | -1.19 | -5.4 | 2.22
PPIL2 (GeneID 23759) | 2 | 0.146 | 3.99 | 7.97
PPIL2 (GeneID 23759) | 3 | -0.377 | 0.317 | 4.29
CTAGE15 (GeneID 441294) | 1 | -0.561 | -0.98 | 3.24
CTAGE15 (GeneID 441294) | 2 | -0.407 | 0.107 | 3.46
CTAGE15 (GeneID 441294) | 3 | -0.627 | -1.45 | 2.63
GOLGA5 (GeneID 9950) | 1 | -0.897 | -3.34 | 3.82
GOLGA5 (GeneID 9950) | 2 | 0.807 | 8.65 | 7.55
GOLGA5 (GeneID 9950) | 3 | -0.496 | -0.523 | 3.21
EGFL8 (GeneID 80864) | 1 | -0.426 | -0.0264 | 5.9
EGFL8 (GeneID 80864) | 2 | -0.746 | -2.28 | 1.99
EGFL8 (GeneID 80864) | 3 | -1.11 | -4.86 | 2.11
TP53BP2 (GeneID 7159) | 1 | -0.379 | 0.304 | 3.58
TP53BP2 (GeneID 7159) | 2 | -0.823 | -2.82 | 3.52
TP53BP2 (GeneID 7159) | 3 | 1.41 | 12.9 | 7.79
MIER1 (GeneID 57708) | 1 | -0.0406 | 2.68 | 5.3
MIER1 (GeneID 57708) | 2 | -0.156 | 1.87 | 4.9
MIER1 (GeneID 57708) | 3 | -0.984 | -3.95 | 4.01
TP53TG3 (GeneID 24150) | 1 | 0.975 | 9.83 | 8.11
TP53TG3 (GeneID 24150) | 2 | 0.286 | 4.98 | 6.1
TP53TG3 (GeneID 24150) | 3 | -0.376 | 0.321 | 3.41
OR2AT4 (GeneID 341152) | 1 | -0.00482 | 2.93 | 4.99
OR2AT4 (GeneID 341152) | 2 | 0.126 | 3.85 | 4.94
OR2AT4 (GeneID 341152) | 3 | -0.424 | -0.0126 | 4.18
OR3A2 (GeneID 4995) | 1 | 0.715 | 8 | 8.37
OR3A2 (GeneID 4995) | 2 | -0.611 | -1.33 | 3.69
OR3A2 (GeneID 4995) | 3 | -0.00341 | 2.94 | 4.42
TERF1P2 (GeneID 646359) | 1 | 0.0679 | 3.45 | 5.08
TERF1P2 (GeneID 646359) | 2 | 0.125 | 3.85 | 4.65
TERF1P2 (GeneID 646359) | 3 | -0.988 | -3.98 | 1.78
TCEAL9 (GeneID 51186) | 1 | -0.617 | -1.37 | 2.31
TCEAL9 (GeneID 51186) | 2 | -1.26 | -5.91 | 3.24
TCEAL9 (GeneID 51186) | 3 | 0.0462 | 3.29 | 4.67
THOC3 (GeneID 84321) | 1 | -1.06 | -4.47 | 3.13
THOC3 (GeneID 84321) | 2 | -0.891 | -3.3 | 3
THOC3 (GeneID 84321) | 3 | 2.5 | 20.6 | 14
PTGR1 (GeneID 22949) | 1 | 1.62 | 14.3 | 8.95
PTGR1 (GeneID 22949) | 2 | -0.321 | 0.711 | 4.11
PTGR1 (GeneID 22949) | 3 | 0.895 | 9.26 | 10.1
FHIP2B (GeneID 64760) | 1 | -0.561 | -0.979 | 2.44
FHIP2B (GeneID 64760) | 2 | -0.452 | -0.211 | 4.49
FHIP2B (GeneID 64760) | 3 | 3.62 | 28.4 | 17.4
OR6F1 (GeneID 343169) | 1 | 4.37 | 33.7 | 15.6
OR6F1 (GeneID 343169) | 2 | -0.0383 | 2.7 | 4.44
OR6F1 (GeneID 343169) | 3 | 0.318 | 5.21 | 6.29
CNDP2 (GeneID 55748) | 1 | 5.84 (active) | 44.1 | 20.9
CNDP2 (GeneID 55748) | 2 | -1.57 | -8.06 | 2.05
CNDP2 (GeneID 55748) | 3 | -0.481 | -0.419 | 3.75
RAB5A (GeneID 5868) | 1 | 0.733 | 8.13 | 7.78
RAB5A (GeneID 5868) | 2 | -0.408 | 0.0986 | 4.18
RAB5A (GeneID 5868) | 3 | -0.889 | -3.29 | 3.85
TRIM7 (GeneID 81786) | 1 | 0.278 | 4.92 | 6.61
TRIM7 (GeneID 81786) | 2 | 0.953 | 9.67 | 9.46
TRIM7 (GeneID 81786) | 3 | -0.891 | -3.3 | 3
ACTRT2 (GeneID 140625) | 1 | -0.869 | -3.15 | 4.46
ACTRT2 (GeneID 140625) | 2 | 5.32 (active) | 40.4 | 19.5
ACTRT2 (GeneID 140625) | 3 | -0.832 | -2.89 | 3.49
RAD50 (GeneID 10111) | 1 | -0.0945 | 2.3 | 3.99
RAD50 (GeneID 10111) | 2 | 0.348 | 5.42 | 6.95
RAD50 (GeneID 10111) | 3 | 0.85 | 8.95 | 8.59
UTP6 (GeneID 55813) | 1 | 2.11 | 17.8 | 10.8
UTP6 (GeneID 55813) | 2 | 2.07 | 17.5 | 11.6
UTP6 (GeneID 55813) | 3 | 5.46 (active) | 41.4 | 24.6
MYG1 (GeneID 60314) | 1 | 0.121 | 3.82 | 6.24
MYG1 (GeneID 60314) | 2 | 0.8 | 8.6 | 8.46
MYG1 (GeneID 60314) | 3 | 3.54 | 27.8 | 10

Sorted by “raw share of cells in G2 (%)” (descending): 7 of the entries above
target gene | reagent no. | G2 robust z-score | G2 cells, % of GMNN control | raw share of cells in G2 (%)
CNDP2 (GeneID 55748) | 1 | 5.84 (active) | 44.1 | 20.9
FHIP2B (GeneID 64760) | 3 | 3.62 | 28.4 | 17.4
OR6F1 (GeneID 343169) | 1 | 4.37 | 33.7 | 15.6
OR6F1 (GeneID 343169) | 3 | 0.318 | 5.21 | 6.29
FHIP2B (GeneID 64760) | 2 | -0.452 | -0.211 | 4.49
OR6F1 (GeneID 343169) | 2 | -0.0383 | 2.7 | 4.44
FHIP2B (GeneID 64760) | 1 | -0.561 | -0.979 | 2.44
